The values that follow are results of earlier work, collected in patent US20130202706A1 (DRUGGABILITY TECHNOLOGIES IP HOLDCO (JERSEY) LTD., priority 2010, published 2013).

`CC(C)c1c(C(=O)Nc2ccccc2)c(-c2ccccc2)c(-c2ccc(F)cc2)n1CC[C@@H](O)C[C@@H](O)CC(=O)O` [Atorvastatin]: the “lower plasma concentrations (Cmax and AUC) following evening administration compared with morning” value (evening versus morning) was “approximately 30%”. Besides, where the note is “with food”, the “decrease of extent of drug absorption by food (AUC)” value is given as approximately 9% and the “decrease of rate of drug absorption by food (Cmax)” value is reported as “approximately 25%”.
